Among the data in publication PMC5066963 are binding values, retold here.

Amino acid sequences for entries named in this document (tags omitted). A change or cut given only in a name is not applied to a line headed by its entry.
UniProt O13619: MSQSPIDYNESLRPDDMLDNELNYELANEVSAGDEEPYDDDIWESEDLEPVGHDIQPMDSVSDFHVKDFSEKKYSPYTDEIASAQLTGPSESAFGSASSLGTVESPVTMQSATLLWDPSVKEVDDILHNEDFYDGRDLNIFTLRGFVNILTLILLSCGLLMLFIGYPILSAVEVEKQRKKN
UniProt Q10287: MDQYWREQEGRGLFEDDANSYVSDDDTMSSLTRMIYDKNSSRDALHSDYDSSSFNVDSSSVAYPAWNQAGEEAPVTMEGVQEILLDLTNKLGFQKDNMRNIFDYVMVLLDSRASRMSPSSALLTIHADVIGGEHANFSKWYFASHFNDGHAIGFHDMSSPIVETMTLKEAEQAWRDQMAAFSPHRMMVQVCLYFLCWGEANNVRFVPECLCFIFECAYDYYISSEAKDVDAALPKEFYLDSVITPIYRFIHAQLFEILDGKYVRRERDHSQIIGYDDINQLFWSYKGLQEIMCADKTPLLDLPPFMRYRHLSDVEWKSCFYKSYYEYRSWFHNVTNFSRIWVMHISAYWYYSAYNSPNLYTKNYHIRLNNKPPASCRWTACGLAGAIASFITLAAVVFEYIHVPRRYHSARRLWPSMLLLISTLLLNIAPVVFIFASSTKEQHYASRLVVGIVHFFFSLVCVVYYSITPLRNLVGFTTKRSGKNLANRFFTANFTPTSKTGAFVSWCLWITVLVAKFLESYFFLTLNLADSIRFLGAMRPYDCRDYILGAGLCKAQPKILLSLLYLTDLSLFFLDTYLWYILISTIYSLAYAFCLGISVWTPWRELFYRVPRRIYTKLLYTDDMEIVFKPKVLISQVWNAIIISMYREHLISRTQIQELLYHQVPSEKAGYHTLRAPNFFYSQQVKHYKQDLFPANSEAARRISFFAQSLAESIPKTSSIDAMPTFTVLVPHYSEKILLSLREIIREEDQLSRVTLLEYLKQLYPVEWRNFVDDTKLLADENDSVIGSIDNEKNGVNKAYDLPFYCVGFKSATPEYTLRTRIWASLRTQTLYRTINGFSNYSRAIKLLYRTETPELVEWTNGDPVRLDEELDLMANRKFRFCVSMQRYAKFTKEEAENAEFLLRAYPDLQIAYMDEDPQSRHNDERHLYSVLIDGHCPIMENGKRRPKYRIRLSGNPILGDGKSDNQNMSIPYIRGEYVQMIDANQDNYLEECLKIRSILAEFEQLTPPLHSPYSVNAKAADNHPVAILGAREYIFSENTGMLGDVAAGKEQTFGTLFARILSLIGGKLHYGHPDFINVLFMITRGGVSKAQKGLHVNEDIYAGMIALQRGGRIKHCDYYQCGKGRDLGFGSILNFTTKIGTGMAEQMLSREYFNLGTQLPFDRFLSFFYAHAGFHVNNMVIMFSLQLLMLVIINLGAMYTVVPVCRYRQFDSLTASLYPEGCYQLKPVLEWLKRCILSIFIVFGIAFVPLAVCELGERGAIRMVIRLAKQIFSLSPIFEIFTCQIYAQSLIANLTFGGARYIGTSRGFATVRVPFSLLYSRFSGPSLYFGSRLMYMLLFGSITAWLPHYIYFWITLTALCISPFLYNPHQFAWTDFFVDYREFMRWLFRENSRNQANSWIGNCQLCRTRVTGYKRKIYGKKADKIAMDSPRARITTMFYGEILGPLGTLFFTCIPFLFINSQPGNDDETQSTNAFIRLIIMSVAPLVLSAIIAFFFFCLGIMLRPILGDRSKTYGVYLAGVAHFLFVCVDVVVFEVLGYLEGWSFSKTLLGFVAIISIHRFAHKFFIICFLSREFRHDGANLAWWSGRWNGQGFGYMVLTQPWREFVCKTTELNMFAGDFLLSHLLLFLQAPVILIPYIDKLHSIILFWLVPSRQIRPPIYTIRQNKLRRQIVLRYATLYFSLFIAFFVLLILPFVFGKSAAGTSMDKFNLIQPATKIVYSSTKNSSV

Assay [1] concerns the target hyg^r-GFP-Sbg1p (S. pombe) (UniProt O13619). The assay can be described thus: co-IP; solubilized membrane proteins of S. pombe strains (50 mM Tris-HCl pH 7.5, 5 mM EDTA, 200 mM NaCl, 0.5% Tween 20) immunoprecipitated with anti-GFP antibody and protein A Sepharose at 4°C; blotted with anti-HA.
Assay [2] concerns the target Sbg1 TMΔ (residues 1-148) (S. pombe) (UniProt O13619). As to the kind of experiment: two-hybrid; genes or fragments in pMM5 and pMM6 plasmids, transformed into SGY37 (MATa) and YPH500 (MATalpha) yeast strains.

No constants are given. Whether binding was seen depends on the method and setting. Binding can be weak; no strength is given. For some assays here: Binding seen in cells or lysates may run through a third protein.

As to HA-Bgs1p (from UniProt Q10287 1-1729), in assay [1], the binding entry is “binds”.

B1: Imp2p (protein, UniProt Q10199 1-670)
chain: MSQQLSFNASSAKPDKSFSNYFWGANDEGYHALLSRFSDVKHINEELRSFYHERANIEEDYAKRMAKLSRTTFSSLETGCLKESVQVMKAEVDNMAKSHLQISQLLQDDVENAFTRYAASLKDKKKMIVSGIEKVHKDKLSKHQALVKAQDKYHYLCKKVNYYVSQQNMLFGKELEKNNAKLNKTQNAITASSSDYQSAVAAVRDSYARWTNEWRSTCDKLQDIEEERRHFLKSVMWTFTLLISRSCFNDDQACERIRKNLEQCSVSQDVLEFIDAKSTGTGIPQPPKFYDYYKGEVPDDSVELVQANFQRAQTKIENDNMPLNRPYVLSATARNESSFENTLPNTPSAIQSLTTVSSNSSQNGRSSPKKSFLSKFKLTSRPSTPNVGNTAPDALSSPRNDSPLTSAADEQMKHLSLQEEPKQNPTPAAPGAFPNSNTLPPRYNELGSLPSPNSVSFTEDSRPNVNTPSRRQQIQEEFGSVLQMENRAVSPVYDSRKNGSRSSFTLRKSRSPKRPSSSLSQNASRLPRSLTPGNLEPNYDFGVRVDPASGTAPTDDEPYTDRDSSFVDDTINTKATGNTSNRLSLPAYPTDGGDTSIDNPTSTDGQRILGYVSALYDYDAAIPEEISFRKGDTIAVLKLYEDGWWEGFVVGEDDHNRGQFPSNFVREIEV
Turning to B1, the binding entry in assay [2] is on record as “binds”.

B2: Fic1p (protein, UniProt O94701 1-272)
chain: MSKNPLGTLVVRIWKAKNLPNKALVGKQSPYCVCRVGEVVKRTQTDKRSGQEPSWNAVLEFNIPSESYHIMKITVFHEGFRKHPHLIGDTVLSFEKAMKEELQSEWYELKNEFQFAGELSVQFKFIPTDPLYFDRASSKPVLQFPYSSVAALTPVPKKPSKPSKPRKKVPVSHPLPPTPPSREEHVSVPRESSLFTYEDDPLPSFPSPYMVDDYYTQDVFVSDNVNDYSYGVQNPTNPRLSVEDYDANHSSLPPVPPPHLILPTASSSQIFH
With B2, the binding result in assay [2] is reported as “no binding”.

B3: Cdc15p (protein, UniProt Q09822 1-927)
chain: MEVNGVSQSEAAPYVTKSSVKFRDNFWGSEDAGMDALMSRTKSSLSVLESIDEFYAKRASIEREYASKLQELAASSADIPEVGSTLNNILSMRTETGSMAKAHEEVSQQINTELRNKIREYIDQTEQQKVVAANAIEELYQKKTALEIDLSEKKDAYEYSCNKLNSYMRQTKKMTGRELDKYNLKIRQAALAVKKMDAEYRETNELLLTVTREWIDRWTEVCDAFQHIEEYRLEFLKTNMWAYANIISTACVKDDESCEKIRLTLENTNIDEDITQMIQNEGTGTTIPPLPEFNDYFKENGLNYDIDQLISKAPSYPYSSSRPSASASLASSPTRSAFRPKTSETVSSEVVSSPPTSPLHSPVKPVSNEQVEQVTEVELSIPVPSIQEAESQKPVLTGSSMRRPSVTSPTFEVAARPLTSMDVRSSHNAETEVQAIPAATDISPEVKEGKNSENAITKDNDDIILSSQLQPTATGSRSSRLSFSRHGHGSQTSLGSIKRKSIMERMGRPTSPFMGSSFSNMGSRSTSPTKEGFASNQHATGASVQSDELEDIDPRANVVLNVGPNMLSVGEAPVESTSKEEDKDVPDPIANAMAELSSSMRRRQSTSVDDEAPVSLSKTSSSTRLNGLGYHSRNTSIASDIDGVPKKSTLGAPPAAHTSAQMQRMSNSFASQTKQVFGEQRTENSARESLRHSRSNMSRSPSPMLSRRSSTLRPSFERSASSLSVRQSDVVSPAPSTRARGQSVSGQQRPSSSMSLYGEYNKSQPQLSMQRSVSPNPLGPNRRSSSVLQSQKSTSSNTSNRNNGGYSGSRPSSEMGHRYGSMSGRSMRQVSQRSTSRARSPEPTNRNSVQSKNVDPRATFTAEGEPILGYVIALYDYQAQIPEEISFQKGDTLMVLRTQEDGWWDGEIINVPNSKRGLFPSNFVQTV
With B3, the binding entry in assay [2] is given as “binds”.

B4: Rga7p (protein, UniProt O94466 1-695)
chain: MLSAPSSSTTPASPPTSPPNTTSSDDFAVLKEPKVEAILNSELGLAILNDRIKDYLLTCKELAGFFKKRSILEEESGKNLQKLAKSYLETFQSKHHSPQSFSASVITSMEIHEQLANHSLTLQKTLSAFSDQVIEFHKNAERKRKSIKEYAKKQENAYLEAVMQMDKSKSRFKGAETEYNRALDNKNTGDSQKKVGFFKPKSNAQLTKLEDEARLKAENAESDMHSKIENAQNVQKQLLCIHRPNYIKQFFSLQREIESSLIANYLRYTKLCESNTLLNGLTIRPQKPTPTNCGLQHALDNINANTDFVQYVLHASIKHEDNKNPTDASKTKIIQPPSSYGTGSSAGKTNPPVNPTIKVTAAIPSPLQNTNPAPSTFPNPSVASPAFPNSSTSNPSTAPASASPLASTLKPSTANDTNGSSSSSSSNPRTSSPLASNAENKPPVAQQSPPVLLPTLPPIQTTTIQTSREVAPPPSSINSNRAASPFRPTSVSPQPSSPTKSLLFGARLDAIILREHSNIPNIVMQCTSQVENFGLNLQGIYRVPSSSARVNMLRSQFENNPLLQLHTPEDYENDVHAVADLLKIFFRELREPLIPDNHQRDFIDAGNVEDESRRRDAVHRAINDLPDANYSTIRHLTIHLAKIKENSDVNKMSTNNLAIIWGPTIIKQATIPEISSFSRTIEILIDYCFTIFDYD
Take B4: the binding entry in assay [2] is on record as “binds”.
